Reference: PubChem BioAssay AID651768 (National Center for Advancing Translational Sciences (NCATS), 2012)
The campaign covered roughly 360,000 compounds. About 1,700 (0.47%) were called active. Inconclusive results, whose numbers are uncertain, are shown with a selection of clear calls. Calls come from the whole dose curve; as a rule, active = well fitted inhibition curve with a large enough effect; inconclusive = small, poorly fitted or top-dose-only effect; inactive = no such curve, though single readings can be large or run the other way. Potencies of inconclusive entries are doubtful fits and often do not repeat.

Protein sequences, listed by entry. Tags and fused reporters are not part of them.
UniProt Q14191, whole entry, looked up: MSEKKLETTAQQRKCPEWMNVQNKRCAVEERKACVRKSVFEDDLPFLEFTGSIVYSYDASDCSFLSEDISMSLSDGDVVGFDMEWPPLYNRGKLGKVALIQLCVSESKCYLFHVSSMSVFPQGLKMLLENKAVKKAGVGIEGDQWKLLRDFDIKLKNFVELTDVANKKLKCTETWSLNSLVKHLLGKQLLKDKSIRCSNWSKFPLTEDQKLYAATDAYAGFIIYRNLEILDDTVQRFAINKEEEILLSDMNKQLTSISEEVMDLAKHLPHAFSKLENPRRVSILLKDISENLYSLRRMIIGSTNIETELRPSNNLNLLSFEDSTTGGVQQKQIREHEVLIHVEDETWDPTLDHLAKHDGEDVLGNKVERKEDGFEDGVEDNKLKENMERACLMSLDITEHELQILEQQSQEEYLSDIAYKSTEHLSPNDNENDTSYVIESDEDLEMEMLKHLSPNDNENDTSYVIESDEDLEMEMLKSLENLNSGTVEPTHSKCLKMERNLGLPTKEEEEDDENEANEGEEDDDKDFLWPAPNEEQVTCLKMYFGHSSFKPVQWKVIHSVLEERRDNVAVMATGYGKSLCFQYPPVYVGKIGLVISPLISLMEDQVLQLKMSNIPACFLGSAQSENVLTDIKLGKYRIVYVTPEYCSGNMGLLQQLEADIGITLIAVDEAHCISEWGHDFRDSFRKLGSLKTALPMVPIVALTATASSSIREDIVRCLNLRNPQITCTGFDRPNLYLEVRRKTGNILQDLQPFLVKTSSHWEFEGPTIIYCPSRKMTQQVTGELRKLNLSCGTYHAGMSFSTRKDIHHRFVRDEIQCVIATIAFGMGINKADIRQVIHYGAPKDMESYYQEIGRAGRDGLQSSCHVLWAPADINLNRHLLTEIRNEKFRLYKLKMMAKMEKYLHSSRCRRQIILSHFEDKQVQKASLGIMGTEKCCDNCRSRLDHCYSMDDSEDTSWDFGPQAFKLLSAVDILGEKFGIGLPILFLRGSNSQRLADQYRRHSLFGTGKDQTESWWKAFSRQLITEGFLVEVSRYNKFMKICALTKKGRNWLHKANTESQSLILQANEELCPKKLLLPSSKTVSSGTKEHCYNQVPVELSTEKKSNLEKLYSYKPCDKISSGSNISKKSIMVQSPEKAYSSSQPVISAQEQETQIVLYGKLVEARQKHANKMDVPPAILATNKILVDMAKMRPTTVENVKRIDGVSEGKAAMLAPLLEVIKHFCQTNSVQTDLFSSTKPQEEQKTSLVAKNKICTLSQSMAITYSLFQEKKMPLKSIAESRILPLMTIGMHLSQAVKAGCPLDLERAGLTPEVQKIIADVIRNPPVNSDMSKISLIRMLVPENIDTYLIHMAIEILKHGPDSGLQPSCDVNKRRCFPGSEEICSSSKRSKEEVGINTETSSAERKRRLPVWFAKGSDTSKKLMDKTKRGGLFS

The compounds below were run against Bifunctional 3'-5' exonuclease/ATP-dependent helicase WRN (Homo sapiens) (UniProt Q14191) (assay: qHTS for Inhibitors of WRN Helicase). Conditions: WRN helicase unwinding, fluorescent forked duplex, kinetic; activity change, negative = inhibition: at 114 µM (top of the series) unless noted.
Excerpt: Inhibition of DNA repair is proposed as a strategy for combating cancer. Synthetic lethality is an approach that exploits preexisting DNA repair deficiencies in certain tumors to develop inhibitors of DNA repair pathways that compensate for the tumor-associated DNA repair deficiency. Because helicases play critical roles in the DNA damage response and in DNA repair, particularly in actively dividing and replicating cells, characterization of synthetic lethal relationships of DNA helicases may be of value in developing improved anticancer treatment strategies; moreover, small molecules that specifically target a given DNA helicase may be useful for understanding its role in cellular nucleic acid metabolism. The goal of this project is to identify small molecule, non-covalent chemical inhibitors of the Werner syndrome (WS) helicase (WRN), which plays an important role in cell proliferation, the replication stress response, and DNA repair. […] The WRN gene product that is defective in the chromosomal instability disorder has DNA helicase and exonuclease activities and interacts with a number of nuclear proteins to maintain genomic stability. We will employ an optimized high-throughput screening assay that utilizes a fluorescence intensity modulation scheme with a fluorophore and quencher positioned near one another within a duplex deoxyoligonucleotide that contains a single forked structure. After a high-throughput screen of the ~350,000-member Molecular Libraries Small Molecule Repository (MLSMR) collection, followed by data analysis and hit selection, a panel of confirmatory, as well as secondary and ternary, assays will be employed to identify high-confidence WRN inhibitors. Structure-activity relationships will be investigated for the top candidate inhibitor series through medchem expansion. These are the results of the primary screening campaign against the MLSMR. NIH Chemical Genomics Center [NCGC] NIH Molecular Libraries Probe Centers Network [MLPCN] MLPCN Grant: MH096530 Assay Submitter (PI): Robert Brosh, National Institute of Aging
Three muL of reagents (buffer in columns 3 and 4 as negative controls; WRN at 20 nM final concentration in columns 1 and 2 as positive controls; columns 5-48 as test reactions) will be dispensed into a 1536-well Greiner black plate via solenoid-valve based nanoliter dispensers. Compounds (23 nL each in columns 5-48) and control (23 nL each in column 2 as dose-response) will be transferred via a Kalypsys pintool equipped with a 1536-pin array. Plates will be incubated for 15 min at room temperature, and then 1 µL of substrate (100 nM forked duplex oligonucleotide and 2 mM ATP final concentrations) will be added to start reaction, and plate will be transferred into a ViewLux high-throughput CCD imager where reaction progress is measured in kinetic mode using standard red-fluorescence optics (excitation filter 525 nm, emission filter 598 nm).
% is set by controls: 0 for no effect and ±100 for the full control effect; potency is the fitted concentration of half-maximal effect.
Note: nearly all actives have a fitted effect of over 55% in size.

Row | Compound | Potency | activity change, negative = inhibition
1 | C/C(=C\C=C(C#N)C#N)c1cc(C#N)c(N)o1 | active: 89.1 µM | –
2 | O=C(CN1C(=O)c2ccccc2C1=O)Nc1cccc([N+](=O)[O-])c1 | inconclusive: 39.8 µM [inhibitor, single point] | –
3 | Cc1ccc(S(=O)(=O)NC(=O)c2ccc(F)cc2)c(C)c1 | – | inactive: 5.99%
4 | Cc1ccccc1NC(=O)COC(=O)CCc1ccccc1 | – | inactive: -2.06%
5 | CSc1ccccc1NC(=O)CN(C)CC(=O)Nc1ccccc1F | inconclusive: 20 µM [inhibitor, full curve, poor fit] | –
6 | O=C(NCc1ccc(Cl)cc1)c1ccc(-n2cccn2)nc1 | inconclusive: 15.8 µM [inhibitor, single point] | –
7 | CN1CCN(C(=O)C2CCCN(S(=O)(=O)c3ccc(Cl)cc3)C2)CC1 (stereo not given) | inconclusive: 31.6 µM [inhibitor, full curve] | –
8 | Cn1c(=S)[nH]c2[nH]c(=O)cnc2c1=O | – | inactive: -9.94%
9 | Oc1c(Br)cc(Br)cc1/C=N/NC(=S)N[C@H]1CC2C=CC1C2 (stereo not given in full) | – | inactive: -18.6%
10 | Cc1sc2nc(SCC(=O)Nc3cccc(C(=O)O)c3)[nH]c(=O)c2c1C | inconclusive: 28.2 µM [inhibitor, full curve, poor fit] | –
11 | Oc1ccc(/C=N/N2CCOCC2)c(O)c1O | inconclusive: 50.1 µM [inhibitor, partial curve] | –
12 | OCCNc1nc(N2CCOCC2)nc(N2CCOCC2)n1 | – | inactive: 1.17%
13 | CC(=O)c1ccc2c(c1)C1C=CCC1C(C(=O)O)N2 (stereo not given) | active: 14.1 µM | –
14 | O=c1[nH]c2ccccc2n2c(-c3ccccc3)nnc12 | active: 20 µM | –
15 | C=CCC(NCc1ccccc1)c1ccc(Cl)cc1 (stereo not given) | – | inactive: -6.21%
16 | CC(C)(C)c1cc(C(=S)N2CCCC2)cc(C(C)(C)C)c1O | – | inactive: -0.137%
17 | O=C1CC(c2ccc(O)c(O)c2)Oc2c1ccc(O)c2O (stereo not given) | active: 3.16 µM | –
18 | CCSC1=C(C#N)C2(CCCC2)C(C#N)=C(N)N1 | inconclusive: 100 µM [inhibitor, single point] | –
19 | O=C1C(=Cc2ccco2)C(=O)c2ccccc21 | inconclusive: 17.8 µM [inhibitor, full curve, poor fit] | –
20 | CCC1CCCCN1C(=S)NC(=O)c1cccs1 (stereo not given) | – | inactive: -9.25%
21 | Cc1cc(C(=O)CSc2nnc(-c3ccncc3)n2-c2ccccc2)c(C)n1C | inconclusive: 79.4 µM [inhibitor, partial curve] | –
22 | COC(=O)[C@@]12C[C@@H](CC(=O)NCCCCc3ccccc3)C(=O)N(Cc3ccccc3)C1=CCC(C)(C)C2 | – | inactive: -4.01%
23 | CCOC(=O)c1ccc(N(CCC2CO2)S(=O)(=O)c2ccc(C)cc2)cc1 (stereo not given) | inconclusive: 12.6 µM [inhibitor, partial curve] | –
24 | CC(=O)NC1=NN(C(C)=O)C(c2ccccc2)S1 (stereo not given) | inconclusive: 89.1 µM [inhibitor, single point] | –
25 | COc1ccc(-c2csc(NC(=S)NC(=O)/C=C/c3ccco3)n2)cc1OC | inconclusive: 17.8 µM [inhibitor, single point] | –

Part of the list above in another layout:
Row	Compound	Potency	activity change, negative = inhibition
7	CN1CCN(C(=O)C2CCCN(S(=O)(=O)c3ccc(Cl)cc3)C2)CC1 (stereo not given)	inconclusive: 31.6 µM [inhibitor, full curve]	–
16	CC(C)(C)c1cc(C(=S)N2CCCC2)cc(C(C)(C)C)c1O	–	inactive: -0.137%
25	COc1ccc(-c2csc(NC(=S)NC(=O)/C=C/c3ccco3)n2)cc1OC	inconclusive: 17.8 µM [inhibitor, single point]	–

(cont.)

Row | Compound | Potency | activity change, negative = inhibition
26 | O=S(=O)(Nc1ccc(Cl)cc1)c1ccc(N2CCOCC2)c(NC(=S)NCCN2CCOCC2)c1 | inconclusive: 44.7 µM [inhibitor, partial curve] | –
27 | Cc1ccc(C(=O)NC2CCCCNC2=O)cc1C (stereo not given) | – | inactive: 12.8%
28 | CCOC(=O)c1ccc(-c2ccc3c(=O)c4ccccc4n(C)c3c2)cc1F | – | inactive: -4.2%
29 | COc1ccc(/C=N/Nc2cc(C)nc3ccc(OC)cc23)c(OC)c1 | active: 12.6 µM | –
30 | CC(/C=N\NC(=O)Cn1c(C)nc2ccccc21)=C\c1ccccc1 | inconclusive: 44.7 µM [inhibitor, partial curve, poor fit] | –
31 | CC1=NOC(=O)/C1=C\c1ccc(-c2ccc(Cl)c(C(=O)O)c2)o1 | active: 35.5 µM | –
32 | Cc1cccc(-n2nc3c(c2NC(=O)c2ccco2)CSC3)c1C | active: 44.7 µM | –
33 | Clc1ccc(-c2ccc(-c3nn4c(-c5ccco5)nnc4s3)o2)cc1 | inconclusive: 11.2 µM [inhibitor, full curve] | –
34 | COc1ccccc1NC(=O)CN(Cc1ccco1)C(=O)c1ccc(N2CCCC2=O)cc1 | inconclusive: 22.4 µM [inhibitor, full curve, poor fit] | –
35 | c1coc(-c2nnc3sc(Cc4cccs4)nn23)c1 | active: 44.7 µM | –
36 | S=c1[nH]nc(-c2ccco2)n1-c1ccc(Br)cc1 | inconclusive: 39.8 µM [inhibitor, single point] | –
37 | CCN1CCN(C(=S)c2ccc(SC)cc2)CC1 | – | inactive: 7.86%
38 | Cc1c(C#N)c(O)n(CCO)c(=O)c1N=Nc1ccc2c(c1)COC2=O | inconclusive: 6.31 µM [inhibitor, full curve, poor fit] | –
39 | O=C(Nc1ccnn1C1CCN(Cc2ccc(O)c(Cl)c2)CC1)C1CCCC1 | inconclusive: 31.6 µM [inhibitor, full curve, poor fit] | –
40 | Cc1ccccc1CSc1nnc(NC(=O)C2COc3ccccc3O2)s1 (stereo not given) | inconclusive: 70.8 µM [inhibitor, single point] | –
41 | O=C(COc1ccc(Br)cc1)N/N=C1/SCC(=O)N1Cc1ccco1 | inconclusive: 79.4 µM [inhibitor, single point] | –
42 | COc1ccccc1OCCNC(=O)CCC(=O)N1CCOCC1 | – | inactive: 4.95%
43 | COc1ccc(CCNC(=O)c2ccc(=O)[nH]c2)cc1OC | – | inactive: 1.52%
44 | Cc1ccc(NCc2ccccc2OCc2ccccc2F)cc1 | – | inactive: -3.13%
45 | Cc1nn(-c2ccccc2)c(Cl)c1/C=N/NC(=O)c1ccccc1NS(=O)(=O)c1cccs1 | inconclusive: 79.4 µM [inhibitor, partial curve, poor fit] | –
46 | CC(C)c1ccc2c(c1)c(SC(C)(C)C)c(CC(C)(C)C(=O)O)n2Cc1ccc(Cl)cc1 | active: 50.1 µM | –
47 | COc1ccc(C(=O)c2sc3nc(-c4ccccc4)ccc3c2N)cc1OC | inconclusive: 31.6 µM [inhibitor, partial curve] | –
48 | O=C(Oc1oc(-c2ccco2)nc1C=Nc1ccccc1)c1ccco1 | inconclusive: 50.1 µM [inhibitor, partial curve] | –
49 | O=C1OC2(c3ccccc31)c1ccccc1-c1ccccc12 | – | inactive: -26.9%
50 | Cc1ccc(NC(=O)Cc2c(C(=O)O)n(C)c3ccccc23)cc1F | inconclusive: 31.6 µM [inhibitor, single point] | –
